Reference: the supplement of paper PMC4604168 (melanoma cell lines)
Some of the results follow. Repeats are few or missing, and single values can be far off.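 Imaging used 1,536-well plates; nuclei positive for cleaved PARP by antibody were divided by total DNA-stained nuclei to yield the apoptosis fraction. Doses for screening kept most cells viable, and cell lines differ markedly in resting and induced cleaved-PARP levels.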

Tests used:
Experiment in all cases: cleaved PARP positive nuclei fraction relative to DMSO control; melanoma cells; higher = more apoptosis
Settings in all cases: library dose: low library concentration; 72 h
[1] = system: 501Mel
[2] = system: A101D
[3] = system: A2058
[4] = system: A375
[5] = system: C32
[6] = system: CBRC008 (line from a melanoma biopsy)
[7] = system: CBRC014 (line from a melanoma biopsy)
[8] = system: CBRC016 (line from a melanoma biopsy)
[9] = system: CBRC017 (line from a melanoma biopsy)

Row | Structure (SMILES) | cleaved PARP positive nuclei fraction [1] [%] | cleaved PARP positive nuclei fraction [2] [%] | cleaved PARP positive nuclei fraction [3] [%] | cleaved PARP positive nuclei fraction [4] [%] | cleaved PARP positive nuclei fraction [5] [%] | cleaved PARP positive nuclei fraction [6] [%] | cleaved PARP positive nuclei fraction [7] [%] | cleaved PARP positive nuclei fraction [8] [%] | cleaved PARP positive nuclei fraction [9] [%]
1 | C[C@]12O[C@H](C[C@]1(O)CO)n1c3ccccc3c3c4c(c5c6ccccc6n2c5c31)CNC4=O [Lestaurtinib] + N.N.[Cl][Pt][Cl] [cisplatin] (first compound 0.004 µM, partner dose 1.6 µM) | 74.8 | 149 | 196 | 232 | 141 | 112 | 110 | 155 | 115
2 | CCCCCCCCCCCCCCCCCCOP(=O)([O-])OC1CC[N+](C)(C)CC1 [Perifosine] + C[C@]12O[C@H](C[C@]1(O)CO)n1c3ccccc3c3c4c(c5c6ccccc6n2c5c31)CNC4=O [Lestaurtinib] (first compound 0.4 µM, partner dose 0.004 µM) | 114 | 157 | 46.9 | 112 | 40.2 | 127 | 166 | 59.9 | 88.7
3 | C[C@]12O[C@H](C[C@]1(O)CO)n1c3ccccc3c3c4c(c5c6ccccc6n2c5c31)CNC4=O [Lestaurtinib] + CS(=O)(=O)CCNCc1ccc(-c2ccc3ncnc(Nc4ccc(OCc5cccc(F)c5)c(Cl)c4)c3c2)o1 [lapatinib] (first compound 0.004 µM, partner dose 0.8 µM) | 154 | 108 | 77.2 | 160 | 84 | 137 | 87 | 101 | 96.3
4 | C[C@]12O[C@H](C[C@]1(O)CO)n1c3ccccc3c3c4c(c5c6ccccc6n2c5c31)CNC4=O [Lestaurtinib] + COCC[n+]1c2c(n(Cc3cnccn3)c1C)C(=O)c1ccccc1C2=O [YM155] (first compound 0.004 µM, partner dose 0.0004 µM) | 62.1 | 91.8 | 65.3 | 48.9 | 71.6 | 295 | 101 | 95.6 | 130
5 | C[C@]12O[C@H](C[C@]1(O)CO)n1c3ccccc3c3c4c(c5c6ccccc6n2c5c31)CNC4=O [Lestaurtinib] + O=C(O)[C@@H]1[O][Sb](=[O])([O][Sb]2(=[O])[O][C@H]([C@H](O)CO)[C@H](O)[C@H](C(=O)O)[O]2)[O][C@H]([C@H](O)CO)[C@@H]1O [stibogluconate] (first compound 0.004 µM, partner dose 2 µM) | 81.5 | 96.1 | 283 | 57.7 | 84.9 | 92.1 | 105 | 106 | 139
6 | N.N.[Cl][Pt][Cl] [cisplatin] + Nc1cccc2c1CN(C1CCC(=O)NC1=O)C2=O [lenalidomide] (first compound 1.6 µM, partner dose 1 µM) | 314 | 127 | 102 | 141 | 95.4 | 201 | 102 | 124 | 226
7 | CS(=O)(=O)CCNCc1ccc(-c2ccc3ncnc(Nc4ccc(OCc5cccc(F)c5)c(Cl)c4)c3c2)o1 [lapatinib] + C[As](C)SC[C@H](NC(=O)CC[C@H](N)C(=O)O)C(=O)NCC(=O)O [Darinaparsin] (first compound 0.8 µM, partner dose 0.4 µM) | 45.7 | 30.8 | 105 | 229 | 61 | 21.9 | 109 | 90.3 | 111
8 | Cn1cc(C2=C(c3cn(C4CCN(Cc5ccccn5)CC4)c4ccccc34)C(=O)NC2=O)c2ccccc21 [Enzastaurin] + C=C(c1ccc(C(=O)O)cc1)c1cc2c(cc1C)C(C)(C)CCC2(C)C [Bexarotene] (first compound 0.8 µM, partner dose 2 µM) | 146 | 129 | 81.9 | 209 | 79.2 | 122 | 83.1 | 130 | 188
9 | Cc1ccc(Nc2nccc(N(C)c3ccc4c(C)n(C)nc4c3)n2)cc1S(N)(=O)=O [Pazopanib] + C[As](C)SC[C@H](NC(=O)CC[C@H](N)C(=O)O)C(=O)NCC(=O)O [Darinaparsin] (first compound 0.4 µM, partner dose 0.4 µM) | 63 | 126 | 136 | 47.8 | 69.3 | 86.8 | 117 | 79.3 | 123
10 | Cn1cc(C2=C(c3cn(C4CCN(Cc5ccccn5)CC4)c4ccccc34)C(=O)NC2=O)c2ccccc21 [Enzastaurin] + Cn1nnc2c(C(N)=O)ncn2c1=O [temozolomide] (first compound 0.8 µM, partner dose 2 µM) | 46.5 | 51.9 | 44.5 | 101 | 264 | 359 | 101 | 119 | 221
11 | N.N.[Cl][Pt][Cl] [cisplatin] + C=C(c1ccc(C(=O)O)cc1)c1cc2c(cc1C)C(C)(C)CCC2(C)C [Bexarotene] (first compound 1.6 µM, partner dose 2 µM) | 103 | 98.4 | 88.7 | 219 | 76.6 | 312 | 182 | 319 | 147

2 entries from above, set out differently.

| Row | Structure (SMILES) | cleaved PARP positive nuclei fraction [1] [%] | cleaved PARP positive nuclei fraction [2] [%] | cleaved PARP positive nuclei fraction [3] [%] | cleaved PARP positive nuclei fraction [4] [%] | cleaved PARP positive nuclei fraction [5] [%] | cleaved PARP positive nuclei fraction [6] [%] | cleaved PARP positive nuclei fraction [7] [%] | cleaved PARP positive nuclei fraction [8] [%] | cleaved PARP positive nuclei fraction [9] [%] |
| --- | --- | --- | --- | --- | --- | --- | --- | --- | --- | --- |
| 4 | C[C@]12O[C@H](C[C@]1(O)CO)n1c3ccccc3c3c4c(c5c6ccccc6n2c5c31)CNC4=O [Lestaurtinib] + COCC[n+]1c2c(n(Cc3cnccn3)c1C)C(=O)c1ccccc1C2=O [YM155] (first compound 0.004 µM, partner dose 0.0004 µM) | 62.1 | 91.8 | 65.3 | 48.9 | 71.6 | 295 | 101 | 95.6 | 130 |
| 10 | Cn1cc(C2=C(c3cn(C4CCN(Cc5ccccn5)CC4)c4ccccc34)C(=O)NC2=O)c2ccccc21 [Enzastaurin] + Cn1nnc2c(C(N)=O)ncn2c1=O [temozolomide] (first compound 0.8 µM, partner dose 2 µM) | 46.5 | 51.9 | 44.5 | 101 | 264 | 359 | 101 | 119 | 221 |
